# Assay results

The results are deposited in PubChem (AID1159506; NCATS, 2015).

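Genome-wide siRNA knockdown in TC32 Ewing sarcoma cells, comparing luciferase light from an NR0B1-promoter reporter with a CMV-promoter reporter 48 hours after transfection. Each siRNA was applied at 20 nM. A z-score of the log NR0B1-over-CMV signal, less the median of siRNAs with the same seed; more negative means a stronger specific loss of the NR0B1 reporter.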

The strongest results of the screen are mostly left out here. Sequences are the guide (antisense) strand, without overhang.

| siRNA | gene | seed-corrected z-score |
|---|---|---|
| `UUAACAUCUGUAAAAACGA` | SAP18 | -0.3273 |
| `UCCUUUAAGAGUGUAACUG` | SKA2 | -0.9051 |
| `AAGUGGAUGAACAGCAUUC` | TMEM110 | -0.3008 |
| `UGAUGAACGAGAAUCCUUC` | GSDMC | -0.7734 |
| `UCAGGUAGCAUCUCCCGGA` | EXOC3L2 | 0.3029 |
| `UACCUGUUGAGGAGUAAUG` | MPP6 | 0.4134 |
| `UGUUCAUCAAACUUCACCG` | FBXW2 | -0.604 |
| `UACAAUCUCAGGAUCGAGG` | CDK5 | 0.6868 |
| `UACUCUUCCGGAUUUCUUC` | DSTNP4 | 0.7123 |
| `AAAGGUACCUUUUAGCUCU` | GYPC | -0.07569 |
| `GCUCGUACAGCUCCAUCUC` | MZT2B | -0.432 |
| `UGGAAAUCGGGAUCUUUGC` | KAZN | -0.4849 |
| `UUGGUUCCCAAAACCUGCU` | FCN3 | -0.5577 |
| `UAAACUUUUGGACUUCUCU` | TLDC1 | 0.6344 |
| `UCUGUUGAGAUUAUUCUCC` | SPATA6L | -0.3081 |
| `AAACUGGUUGGUGACCUCG` | UCHL3 | -0.3294 |
| `UGAUUGGACACGGUGAUGA` | TAZ | 0.166 |
| `UAAUUGUCCUCAACCACCU` | SEC14L5 | 0.03134 |
| `UUAUCUUCAAAGAUAAGUC` | CEP57 | 0.7344 |
| `UAAGUUAAUAUCGUGAGGG` | LOC728178 | 0.1765 |
| `UACGAAAAACUGAACUGCC` | DNAJC7 | 0.1276 |
| `AAAGUAGAUAUCGAUGAAG` | CATSPER3 | -1.782 |
| `AAGGUCGUAGGUGUGAUCC` | ADGRG4 | -1.021 |
| `AGAGGAAUUCCGGAGGUGC` | TRUB2 | -0.5767 |
| `UAUCUCUGAAGCGUAAUCG` | PTP4A2 | -0.1657 |
| `UCAUCAACAACCUUCAGCA` | MAGEB1 | -0.3161 |
| `AUACGAAGAGCAGUUAGGC` | ACVR1C | -0.4051 |
| `UCUGCUCCUGUAGAUGGCG` | HLA-DQA1 | 0.3405 |
| `UACUGAACAACAGCAUCCA` | LOC340113 | 0.7195 |
| `UCUGCUUUAUUCUCCUUCG` | RPLP1P3 | -1.775 |
| `AACAACUAAAGUUGGAUGC` | FBXL5 | 1.068 |
| `AAGGUGUUGAUGCUAAUUC` | GUCY1A2 | -0.368 |
| `GUCAUCAGCAUUCCAUGCC` | LY6D | 0.7725 |
| `AAAAGUAUCAGUGAAGGUG` | TRIM39 | -0.3992 |
| `UAACUCUGCAAAAUCAGCC` | PRCP | -0.1498 |
| `UAUUAGUUAAACCAGAACC` | ATPIF1 | 1.369 |
| `UGGUUUUCUAUGGUUCUCC` | RIPK3 | -0.3598 |
| `UGCUUCGUAAGCUAACGGG` | GAS2L1 | -0.09132 |
| `UUCACUAUCAUCACAUUGA` | DEFB112 | 0.3035 |
| `UGCACCUGUAGAGAAAUGC` | LINC00898 | -0.4029 |
| `UAAUAGGUGACUGAGGUCU` | CYB5B | 0.7457 |
| `UCGGUUAUAAAGUUCUUCC` | NPEPPS | -0.9565 |
| `UCCUUUCUAAGGUCCCUAC` | DGAT2L6 | -0.05078 |
| `UCUUUAAUAAGUGAGAGUG` | CPQ | 0.01663 |
| `AAAGGAAGUGCAACAGCUC` | EPS8L1 | 0.3483 |
| `UAGUGCAGCACGUAGACGG` | GPR17 | 0.4834 |
| `CAAAGUUUCACUGAGCGCG` | LOC646471 | -1.125 |
| `UCCACUAAAAUGUUCUCGG` | MKLN1 | 0.2893 |
| `ACAGCUACUACAAUGAGAG` | OR5M9 | -0.1645 |
| `UCUAGUCUGAGGUAAGGUC` | EXOG | 0.1457 |
| `UUGUUAUUCAGGUAGAUCC` | MSRB2 | 0.4259 |
| `UUUAUCCUCAUAACAAGUC` | C8orf58 | 0.1233 |
| `UCUGCUCCCGCCUAUAUGC` | POLE3 | 0.4605 |
| `UCAGCUACAAACUUCCGGG` | SLC25A44 | -0.7578 |

Some entries from above, unchanged:

| siRNA | gene | seed-corrected z-score |
|---|---|---|
| `UUAUCUUCAAAGAUAAGUC` | CEP57 | 0.7344 |
| `AGAGGAAUUCCGGAGGUGC` | TRUB2 | -0.5767 |
| `AAAAGUAUCAGUGAAGGUG` | TRIM39 | -0.3992 |
| `UCCUUUAAGAGUGUAACUG` | SKA2 | -0.9051 |
| `UACUGAACAACAGCAUCCA` | LOC340113 | 0.7195 |
| `UACUCUUCCGGAUUUCUUC` | DSTNP4 | 0.7123 |
| `UAGUGCAGCACGUAGACGG` | GPR17 | 0.4834 |